The whole screen tested about 300,000 compounds, of which about 5,400 (1.8%) were called active. Inconclusive results, whose numbers are uncertain, are shown with a selection of clear calls. Calls come from the whole dose curve; tested in HEK293 cells. Where the call is inconclusive, the potency comes from a doubtful curve fit.
Experiment: qHTS for inhibitors of binding or entry into cells for Marburg Virus
Details: Marburg virus pseudotyped entry inhibition, cell reporter; activity change, negative = inhibition: at 37.8 µM (top of the series) unless noted
In the case of Cc1cccc(C)c1NC(=O)CCCSc1nc2ccccc2s1, the Potency is reported as “inactive”.
In the case of c1ccc(-c2ccccc2OCCN2CCCC2)cc1, the Potency is reported as inconclusive: 8.91 µM [inhibitor, partial curve, poor fit].
For CC(Oc1cccc(Cl)c1)C(=O)Nc1ccc(S(=O)(=O)N(C)C2CCN(C)CC2)cc1 (configuration not stated), the Potency was inconclusive: 14.1 µM [inhibitor, single point].
In the case of Cc1cc(F)c(F)c(C(=O)NC2CC2)c1Cl, the Potency is reported as “inactive”.
In the case of CCOc1ccccc1N(C(=O)Cn1nnnc1-c1ccc(C)o1)C(CC)C(=O)NC(C)(C)C (configuration not stated), the Potency is reported as inconclusive: 7.3 µM [inhibitor, partial curve, poor fit].
In the case of CCn1c(SCC(=O)Nc2ccccc2)nnc1C1CCCCC1, the Potency is reported as inconclusive: 1.26 µM [activator, single point].
With COc1ccc(OC)c(NC(=O)COC(=O)/C=C/c2c(C)nn(C3CCS(=O)(=O)C3)c2Cl)c1 (configuration not stated) the Potency was “inactive”.
With CCOc1cc(OCC)cc(C(=O)NCc2ccco2)c1 the Potency was inconclusive: 3.98 µM [inhibitor, partial curve].
With CC(c1nccs1)N(C)c1nc2nonc2nc1N(C)C (configuration not stated) the Potency was “inactive”.
For O=C(COc1ccccc1[N+](=O)[O-])Nc1ccccc1N1CCCCC1, the Potency was inconclusive: 12.6 µM [inhibitor, single point].
For O=S(=O)(Nc1cccc2ccccc12)c1ccccc1F, the Potency was inconclusive: 22.4 µM [inhibitor, single point].
For COC(=O)C(C(C)=O)C1=C/C(=N\S(=O)(=O)c2ccc(C)cc2)c2ccccc2C1=O (configuration not stated), the Potency was “inactive”.
With CCOC(=O)Nc1ccc2c3c(cccc13)-c1ccccc1-2 the Potency was “inactive”.
For O=C(N/N=C1/CC2C=CCC12)c1ccc(Br)o1 (configuration not stated), the Potency was inconclusive: 0.58 µM [activator, full curve, poor fit].
With Cc1onc(-c2cccc(Cl)c2Cl)c1C(=O)O/N=C(\N)c1ccc([N+](=O)[O-])o1 the Potency was “inactive”.
For CCCC(Oc1ccc(Br)cc1)c1nc2c3cc(OC)c(OC)cc3nc(=S)n2[nH]1 (configuration not stated), the Potency was inconclusive: 14.1 µM [inhibitor, single point].
For Oc1ccc(Cl)cc1Sc1cc(Cl)ccc1O, the Potency was inconclusive: 35.5 µM [inhibitor, single point].
With CCOC(=O)c1sc(Nc2ccc(C)cc2C)nc1C the Potency was inconclusive: 22.4 µM [inhibitor, single point].
With Cc1ccccc1OCC(O)Cn1c(=N)n(CCN2CCOCC2)c2ccccc21 (configuration not stated) the Potency was inconclusive: 35.5 µM [inhibitor, single point].
With Cc1ccc(OCC(=O)c2cc(C)n(-c3cc(C)on3)c2C)c([N+](=O)[O-])n1 the Potency was “inactive”.
For O=C(N/N=C/c1ccccc1O)C1CC(=O)N(c2ccc(F)cc2)C1 (configuration not stated), the Potency was inconclusive: 14.1 µM [inhibitor, partial curve, poor fit].
With CC(=O)c1cccc(NC(=O)C(Sc2ncnc3ccccc23)c2ccccc2)c1 (configuration not stated) the Potency was “inactive”.
In the case of Cc1ccc(S(=O)(=O)Nc2ccc(S(=O)(=O)N3CCOCC3)cc2)cc1[N+](=O)[O-], the Potency is reported as inconclusive: 25.1 µM [inhibitor, single point].
With CCCn1c(C)cc(C(=O)CSc2nc3ccccc3c(=O)n2Cc2ccco2)c1C the Potency was inconclusive: 1.41 µM [activator, partial curve, poor fit].
With O=C(COC(=O)C1CCN(C(=O)Nc2ccccc2)CC1)NCC(F)(F)F the activity change, negative = inhibition was inconclusive: 30.4% [activator] [at 46.1 µM].
With COc1cccc(C(=O)C2CCCN(CC3=Cc4cc(OC)ccc4OC3)C2)c1 (configuration not stated) the Potency was inconclusive: 15.8 µM [inhibitor, single point].
In the case of Cc1ccccc1C(=O)NC(=S)Nc1ccccc1C(=O)O, the Potency is reported as “inactive”.
For O=C(O)c1cccnc1NC1CCCC1, the Potency was inconclusive: 5.17 µM [activator, full curve, poor fit].
For O=C1Nc2ccccc2C12Nc1ccccc1-c1nc3ccccc3n12 (configuration not stated), the Potency was “inactive”.
With O=C(NCC(c1ccco1)N1CCc2ccccc21)c1ccccc1Cl (configuration not stated) the Potency was inconclusive: 12.6 µM [inhibitor, partial curve].
For Cc1ccc(SCC(=O)NCCCc2ccccc2)cc1, the Potency was “inactive”.
For COc1ccc(C(=O)NC2CC(C)(C)Cc3c2cnn3-c2ccccc2C)o1 (configuration not stated), the Potency was inconclusive: 7.08 µM [inhibitor, partial curve].
For CN1C(=O)CC(Sc2ccccc2C(=O)O)C1=O (configuration not stated), the Potency was inconclusive: 20.6 µM [activator, single point].
In the case of CCCOc1ccccc1C1NC(=O)NC(C)=C1C(=O)OCc1ccccc1 (configuration not stated), the Potency is reported as inconclusive: 16.4 µM [inhibitor, single point].
With CC(=O)c1ccc(OCC(=O)Nc2ccc3nc(C)sc3c2)cc1 the Potency was “inactive”.
For CCOC(=O)C1CCN(S(=O)(=O)c2cccc(-c3cn4cccnc4n3)c2)CC1, the Potency was inconclusive: 35.5 µM [inhibitor, single point].
For COc1cc2c(cc1OC)CN(C(=O)c1cc(=O)c3ccccc3o1)CC2, the Potency was inconclusive: 4.47 µM [inhibitor, full curve].
In the case of O=C(NCc1ccc(Cl)cc1)N1CCOCC1, the activity change, negative = inhibition is reported as inconclusive: 2.44% [activator].
For O=C(NCc1cccnc1)C(=O)Nc1nc2ccccc2s1, the Potency was “inactive”.
For O=C(O)C(NS(=O)(=O)c1ccc(F)cc1)c1ccccc1 (configuration not stated), the Potency was “inactive”.
In the case of CCC(C)(C)NC(=O)C(c1ccc(OC)cc1)N(C(=O)CCC(=O)Nc1cc(C)on1)c1ccccc1F (configuration not stated), the Potency is reported as inconclusive: 3.16 µM [inhibitor, single point].
In the case of CSc1nc(C=Nc2ccccc2Cl)c(O)n1Cc1cccc(Cl)c1, the Potency is reported as inconclusive: 0.199 µM [inhibitor, full curve, poor fit].
In the case of COc1cc(C)nc(N(C)S(=O)(=O)c2ccccc2Cl)n1, the Potency is reported as inconclusive: 35.5 µM [inhibitor, single point].
With CN(C)CCNc1nc(S(=O)(=O)c2ccccc2)c(Cl)s1 the Potency was inconclusive: 3.16 µM [inhibitor, partial curve, poor fit].
In the case of O=C(NC(=S)Nc1ccccc1N1CCCCC1)c1ccc(F)cc1, the Potency is reported as inconclusive: 10 µM [inhibitor, partial curve, poor fit].
In the case of CN(c1ccc(OCC(=O)Nc2ccc(S(N)(=O)=O)cc2)cc1)S(=O)(=O)c1ccc(F)cc1, the Potency is reported as inconclusive: 2 µM [inhibitor, single point].
With Cc1ccc2nc(-c3ccc(NC(=O)COC(=O)c4ccc([N+](=O)[O-])o4)cc3)sc2c1 the Potency was active: 3.98 µM.
In the case of O=C(CCC1CCCN(C(=O)Cn2cnnn2)C1)NCc1ccc(F)c(F)c1 (configuration not stated), the Potency is reported as inconclusive: 5.01 µM [inhibitor, single point].
For CC(=O)Nc1ccc(Nc2nc(-c3ccccc3)nc3ccccc23)cc1, the Potency was inconclusive: 15.8 µM [inhibitor, single point].
In the case of COc1ccccc1C(=O)Nc1ccc2nc(N3CCC(C)CC3)cc(C)c2c1, the Potency is reported as “inactive”.
With c1ccc(-c2noc(CC3CCCCC3)n2)cc1 the Potency was inconclusive: 10 µM [activator, partial curve, poor fit].
For CS(=O)(=O)c1nc2ccccc2n1Cc1ccccc1, the Potency was “inactive”.
In the case of O=C(c1ccccc1)c1coc2c1C(=O)c1ccccc1C2=O, the Potency is reported as inconclusive: 12.6 µM [inhibitor, partial curve, poor fit].
For CCOCCCN(Cc1cc2cc(C)cc(C)c2[nH]c1=O)C(=O)N(CC)CC, the Potency was inconclusive: 3.26 µM [inhibitor, partial curve].
For Cc1c(C(=O)N(C)Cc2ccccc2)oc2ccc(S(=O)(=O)N3CCCC3)cc12, the Potency was inconclusive: 2.31 µM [inhibitor, partial curve].
In the case of COc1cccc(CC(=O)Nc2ccc3nc(N4CCC(C)CC4)cc(C)c3c2)c1, the Potency is reported as “inactive”.
In the case of CC(C)(Oc1ccc(Cl)cc1)C(=O)NCc1ccncc1, the Potency is reported as “inactive”.
In the case of c1csc(CN2CCOCC2)c1, the Potency is reported as inconclusive: 4.11 µM [activator, partial curve, poor fit].
For CCC(=O)Nc1cccc(-c2nnc(SCC(=O)c3ccccc3)n2C)c1, the Potency was “inactive”.
With COC(=O)c1ccc(COc2ccc(NC(C)=O)cc2)o1 the Potency was inconclusive: 14.1 µM [activator, partial curve, poor fit].
In the case of CCN(CC(=O)NCc1cccs1)C(=O)c1ccc(-c2ccccc2F)o1, the Potency is reported as inconclusive: 3.16 µM [activator, partial curve, poor fit].
For Cc1noc(C)c1S(=O)(=O)Nc1ccc(C(=O)Nc2ccc(OC(F)(F)F)cc2)cc1, the Potency was “inactive”.
For Cc1cnc(CNC(=O)c2ccc(OC3CCN(C(=O)C4CC4)CC3)cc2)cn1, the Potency was “inactive”.
For CC1Oc2ccccc2N(CC(=O)Nc2ccc3c(c2)OCCO3)C1=O (configuration not stated), the Potency was “inactive”.
With Cc1ccc(NCc2ccc(O)c3ncccc23)cc1 the Potency was inconclusive: 29.1 µM [inhibitor, single point].
In the case of CCC1CCCCN1C(=O)CCS(=O)(=O)c1ccccc1 (configuration not stated), the Potency is reported as inconclusive: 11.2 µM [activator, partial curve, poor fit].
With NNC(=S)Nc1c(F)cc(F)cc1Br the Potency was “inactive”.
For COc1cc2cc(-c3ccc(O)cc3O)nc(C)c2cc1OC, the Potency was inconclusive: 14.1 µM [inhibitor, partial curve, poor fit].
For Cc1ccc(C(=O)N2N=C(c3ccccc3O)CC2c2ccccc2)cc1 (configuration not stated), the Potency was “inactive”.
For Cc1cccc(C(C)C)c1NC(=O)C(C)OC(=O)Cn1cnc2c1c(=O)n(C)c(=O)n2C (configuration not stated), the Potency was “inactive”.
In the case of CN(CCNC(=O)C1CCC(=O)N(Cc2ccc(Cl)cc2)C1)CCc1ccccc1 (configuration not stated), the Potency is reported as inconclusive: 35.5 µM [inhibitor, single point].
With CCn1c(C)c(C2N3CC4(C)CN2CC(CC)(C3)C4=O)c2ccccc21 (configuration not stated) the Potency was “inactive”.
% is set by controls: 0 for no effect and ±100 for the full control effect; potency is the fitted concentration of half-maximal effect.
